# “Also recorded” adds a separate entry of the source. A number of entries come with more than one value. The other results are left out here. An entry can have further records. The records of an entry differ for a reason that is not stated; they may come from other doses, times, organisms or constructs than stated.
# Tests used:
# [1] = system: LPS-induced inflammation in female Balb/c mice; assay: LPS-induced pulmonary inflammation in mice; details: BALF zymography; 150 mg/kg i.p. 2 hours before LPS 1 μg, 24 hours; n = 6; LPS alone 0.46 ± 0.10; listed as 4NO, 150 mg/kg
# [2] = system: bleomycin-induced fibrosis in C57BL6 female mice; assay: Bleomycin model of pulmonary fibrosis in mice; format: in vivo; details: 4NO 50 mg/kg/day i.p., listed as 4NO
smiles,measurement,setting,value
COc1cc2c(cc1O)/C(=N/OCc1ccc([N+](=O)[O-])cc1)C[C@@H]1[C@@H]2CC[C@]2(C)[C@@H](O)CC[C@@H]12,Active MMP-9,[1],increased significantly in LPS/vehicle treated animals but not in those pretreated with 4NO or CP-DM-4-35; also recorded: 0.32 ± 0.08 Arbitrary units
same,BALF cell #,"[2]; n = 5-6, bleomycin alone 11463 ± 2130, control 3926 ± 881","increased significantly in mice treated with vehicle/bleomycin, but not in those treated with bleomycin/4NO; also recorded: 8356 ± 1434"
same,Resistance,"[2]; n = 11-12, bleomycin alone 0.50 ± 0.03, control 0.42 ± 0.01","increased significantly in mice treated with vehicle/bleomycin, but not in those treated with bleomycin/4NO; also recorded: 0.45 ± 0.01 cmH2O/ml/s"
same,Proliferation Mesenchymal,"[2]; BrdU positive nuclei as percentage of total nuclei, major airway, n = 6, bleomycin alone 10.16 ± 1.969",selectively attenuates and 6.065 ± 1.223
same,Tissue area (%),"[2]; percentage of grid points falling on tissue, n = 6, bleomycin alone 44.4 ± 2.3","increased in bleomycin/vehicle mice, but not in those treated with bleomycin/4NO; also recorded: 35.0 ± 1.7%"

# From patent US20070275935A1, “Estratriene Derivatives” (priority 2003, published 2007)
